Experimental data: PubChem BioAssay AID1224827 (NIAID, 2016)
Screen: 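Confirm genes whose knock-down changes LPS-driven TNF promoter activity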 (follow-up of hits). Cell system: RAW264.7 G9 mouse macrophage reporter clone. Reagents: single siRNA against mouse genes, 100 nM siRNA. Time to read-out: siRNA for 2 days, then LPS about 16 h. Challenge: bacterial lipopolysaccharide (LPS), 10 ng/ml, cells fixed after overnight (about 16 h) stimulation. Detection: 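TNF promoter reporter red fluorescence in nuclei, background subtracted, normalised per plate and to non-targeting control siRNA, as z-scores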. Reading the numbers: TNF reporter z-score, mean: higher = stronger Tnf promoter reporter signal. Call rule: 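Active siRNA: replicate-mean z-score of 2 or more, or -2 or less; no calls for control wells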.
In all, the deposit lists about 3,800 reagents; below is an unselected part. About 2,200 of all reagents (57%) were called active. 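Active means a strong reporter change in either direction; calls are per siRNA, not per gene; qiagen siRNAs gave weaker effects.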 Unmarked entries are inactive. The numbers tell different reagents against one gene apart. Further read-outs or replicates are left out here.

| gene | reagent | TNF reporter z-score, mean |
| --- | --- | --- |
| Etnppl (GeneID 71760) | 1 | -2.59 (active) |
| Etnppl (GeneID 71760) | 2 | -2.88 (active) |
| Etnppl (GeneID 71760) | 3 | -4.63 (active) |
| Etnppl (GeneID 71760) | 4 | 1.63 |
| Etnppl (GeneID 71760) | 5 | 1.67 |
| Etnppl (GeneID 71760) | 6 | 0.0183 |
| Ap1g2 (GeneID 11766) | 1 | -4.81 (active) |
| Ap1g2 (GeneID 11766) | 2 | -6.24 (active) |
| Ap1g2 (GeneID 11766) | 3 | -6.49 (active) |
| Ap1g2 (GeneID 11766) | 4 | 1.8 |
| Ap1g2 (GeneID 11766) | 5 | -1.22 |
| Ap1g2 (GeneID 11766) | 6 | -1.89 |

The list goes on; the last 3 above are carried over.
| gene | reagent | TNF reporter z-score, mean |
| --- | --- | --- |
| Ap1g2 (GeneID 11766) | 4 | 1.8 |
| Ap1g2 (GeneID 11766) | 5 | -1.22 |
| Ap1g2 (GeneID 11766) | 6 | -1.89 |
| Msn (GeneID 17698) | 1 | -0.134 |
| Msn (GeneID 17698) | 2 | -2.36 (active) |
| Msn (GeneID 17698) | 3 | -5.26 (active) |
| Msn (GeneID 17698) | 4 | 3.99 (active) |
| Msn (GeneID 17698) | 5 | 3.87 (active) |
| Msn (GeneID 17698) | 6 | 2.17 (active) |
| Dixdc1 (GeneID 330938) | 1 | 0.686 |
| Dixdc1 (GeneID 330938) | 2 | -2.35 (active) |
| Dixdc1 (GeneID 330938) | 3 | -4.75 (active) |
| Dixdc1 (GeneID 330938) | 4 | 3.4 (active) |
| Dixdc1 (GeneID 330938) | 5 | 0.907 |
| Dixdc1 (GeneID 330938) | 6 | -1.31 |
